PubChem BioAssay AID1259308 – NCATS | 2017
This is an unselected part of about 59,000 deposited reagents. Over the whole deposit, about 1,510 (2.6%) were called active. 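Calls use total luciferase alone and ignore viability, so some active siRNAs may act by altering cell number.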 A number with no mark means an inactive call. The numbers tell different reagents against one gene apart. Not all columns of the deposit are shown. Reagent sequences are not shown.

Test: 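Candidate targets for better recombinant protein yield in mammalian cells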 (primary screen)
System: human HEK293 embryonic kidney cells stably expressing firefly luciferase (HEK-CMV-Luc2-Hygro)
Reagent: single siRNA against human genes, 0.8 pmol siRNA per well
Duration: 72 h
Measured: 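Luciferase light (ONE-Glo) measured on one replicate plate set and viability (CellTiter-Glo) on the other, scaled to a negative control siRNA, with robust z-scores and luciferase per cell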
Reading the numbers: total luciferase, z-score: higher = more reporter protein produced
Active means: 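Active when the median/MAD z-score for overall luciferase is greater than 3; a gene was taken forward for validation with new siRNAs if at least two of its three siRNAs passed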
Meaning of the calls: active = raised luciferase; inactive = no rise

total luciferase, z-score, by gene and reagent
RNF186 (GeneID 54546): #1 -0.428; #2 1.06; #3 -0.412
PA2G4 (GeneID 5036): #1 -0.48; #2 0.471; #3 -0.339
GEMIN8 (GeneID 54960): #1 1.15; #2 1.36; #3 1.66
REEP2 (GeneID 51308): #1 -0.0872; #2 -0.141; #3 0.519
HAO2 (GeneID 51179): #1 -0.206; #2 -1.01; #3 -0.266
FAM216B (GeneID 144809): #1 -0.277; #2 4.12 (active); #3 -0.856
PAPOLB (GeneID 56903): #1 0.302; #2 -1.38; #3 -0.662
CANT1 (GeneID 124583): #1 1.21; #2 -0.156; #3 0.0757

Laid out differently: 2 of the entries above.
HAO2 (GeneID 51179) #1 — total luciferase, z-score: -0.206
HAO2 (GeneID 51179) #2 — total luciferase, z-score: -1.01
